Results are given in words; binding and its absence hold for the method and conditions named. In cells and extracts the contact can be indirect. These calls come from enrichment with a bait or labelling near it, and not all partners need be listed.
Target: Lamellipodin (human (endogenous in A172 and U343MG)) (UniProt Q70E73)
Experiment: affinity purification with mass spectrometry; endogenous Lpd immunoprecipitated (anti-Lamellipodin #91138, protein A/G Sepharose, overnight 4 °C) from 1000 µg A172 lysate in GST lysis buffer (50 mM Tris HCl, 200 mM NaCl, 1% NP-40, pH 7.4), unirradiated or 1 h after 6 Gy X-rays; rabbit IgG control; label-free quantification, Lpd/IgG ratio of at least two

Sequences of proteins named here, by UniProt entry; tags and fusion partners are left off. A change or cut given only in a name is not applied to a line headed by its entry.
UniProt Q70E73: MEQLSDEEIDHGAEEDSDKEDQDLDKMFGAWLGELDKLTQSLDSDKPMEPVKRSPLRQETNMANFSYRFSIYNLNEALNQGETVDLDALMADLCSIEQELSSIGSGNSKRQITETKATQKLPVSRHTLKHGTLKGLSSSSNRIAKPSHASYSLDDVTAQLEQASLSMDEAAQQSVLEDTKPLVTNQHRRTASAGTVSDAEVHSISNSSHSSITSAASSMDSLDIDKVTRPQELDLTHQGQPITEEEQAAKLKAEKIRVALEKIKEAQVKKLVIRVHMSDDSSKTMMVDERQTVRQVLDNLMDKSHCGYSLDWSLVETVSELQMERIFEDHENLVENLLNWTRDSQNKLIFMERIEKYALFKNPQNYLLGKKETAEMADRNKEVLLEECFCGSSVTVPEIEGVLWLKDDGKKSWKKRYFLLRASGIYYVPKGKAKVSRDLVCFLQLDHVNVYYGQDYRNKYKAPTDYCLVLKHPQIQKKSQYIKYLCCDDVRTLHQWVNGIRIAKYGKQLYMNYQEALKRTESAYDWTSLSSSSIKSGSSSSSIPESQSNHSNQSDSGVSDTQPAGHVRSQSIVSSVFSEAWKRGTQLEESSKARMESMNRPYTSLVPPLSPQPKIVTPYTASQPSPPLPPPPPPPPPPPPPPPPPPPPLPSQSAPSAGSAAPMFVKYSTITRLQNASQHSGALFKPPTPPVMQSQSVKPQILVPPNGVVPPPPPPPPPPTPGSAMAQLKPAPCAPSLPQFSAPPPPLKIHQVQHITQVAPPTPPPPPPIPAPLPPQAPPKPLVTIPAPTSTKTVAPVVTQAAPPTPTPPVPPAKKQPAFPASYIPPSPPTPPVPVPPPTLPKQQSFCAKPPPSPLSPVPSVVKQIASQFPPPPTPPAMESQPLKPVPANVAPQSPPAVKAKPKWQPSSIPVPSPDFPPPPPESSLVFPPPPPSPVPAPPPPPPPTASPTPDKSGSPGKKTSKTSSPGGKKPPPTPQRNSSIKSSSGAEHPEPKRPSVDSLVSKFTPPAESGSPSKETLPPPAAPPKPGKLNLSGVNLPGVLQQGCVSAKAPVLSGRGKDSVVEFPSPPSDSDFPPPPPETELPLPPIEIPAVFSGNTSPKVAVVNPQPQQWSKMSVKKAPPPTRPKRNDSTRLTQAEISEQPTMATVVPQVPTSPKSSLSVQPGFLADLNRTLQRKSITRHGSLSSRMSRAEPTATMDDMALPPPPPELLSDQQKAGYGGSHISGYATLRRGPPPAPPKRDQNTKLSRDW
UniProt Q92747: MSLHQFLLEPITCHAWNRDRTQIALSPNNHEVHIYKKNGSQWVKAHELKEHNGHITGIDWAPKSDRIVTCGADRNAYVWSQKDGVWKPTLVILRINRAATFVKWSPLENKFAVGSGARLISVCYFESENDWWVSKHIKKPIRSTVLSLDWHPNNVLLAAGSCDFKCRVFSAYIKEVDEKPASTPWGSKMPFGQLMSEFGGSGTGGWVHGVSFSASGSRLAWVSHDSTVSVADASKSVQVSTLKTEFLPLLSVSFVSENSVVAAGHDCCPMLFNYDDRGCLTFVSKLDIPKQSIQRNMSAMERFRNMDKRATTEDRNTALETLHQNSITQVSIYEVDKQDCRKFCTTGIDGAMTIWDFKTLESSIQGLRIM
UniProt Q15032: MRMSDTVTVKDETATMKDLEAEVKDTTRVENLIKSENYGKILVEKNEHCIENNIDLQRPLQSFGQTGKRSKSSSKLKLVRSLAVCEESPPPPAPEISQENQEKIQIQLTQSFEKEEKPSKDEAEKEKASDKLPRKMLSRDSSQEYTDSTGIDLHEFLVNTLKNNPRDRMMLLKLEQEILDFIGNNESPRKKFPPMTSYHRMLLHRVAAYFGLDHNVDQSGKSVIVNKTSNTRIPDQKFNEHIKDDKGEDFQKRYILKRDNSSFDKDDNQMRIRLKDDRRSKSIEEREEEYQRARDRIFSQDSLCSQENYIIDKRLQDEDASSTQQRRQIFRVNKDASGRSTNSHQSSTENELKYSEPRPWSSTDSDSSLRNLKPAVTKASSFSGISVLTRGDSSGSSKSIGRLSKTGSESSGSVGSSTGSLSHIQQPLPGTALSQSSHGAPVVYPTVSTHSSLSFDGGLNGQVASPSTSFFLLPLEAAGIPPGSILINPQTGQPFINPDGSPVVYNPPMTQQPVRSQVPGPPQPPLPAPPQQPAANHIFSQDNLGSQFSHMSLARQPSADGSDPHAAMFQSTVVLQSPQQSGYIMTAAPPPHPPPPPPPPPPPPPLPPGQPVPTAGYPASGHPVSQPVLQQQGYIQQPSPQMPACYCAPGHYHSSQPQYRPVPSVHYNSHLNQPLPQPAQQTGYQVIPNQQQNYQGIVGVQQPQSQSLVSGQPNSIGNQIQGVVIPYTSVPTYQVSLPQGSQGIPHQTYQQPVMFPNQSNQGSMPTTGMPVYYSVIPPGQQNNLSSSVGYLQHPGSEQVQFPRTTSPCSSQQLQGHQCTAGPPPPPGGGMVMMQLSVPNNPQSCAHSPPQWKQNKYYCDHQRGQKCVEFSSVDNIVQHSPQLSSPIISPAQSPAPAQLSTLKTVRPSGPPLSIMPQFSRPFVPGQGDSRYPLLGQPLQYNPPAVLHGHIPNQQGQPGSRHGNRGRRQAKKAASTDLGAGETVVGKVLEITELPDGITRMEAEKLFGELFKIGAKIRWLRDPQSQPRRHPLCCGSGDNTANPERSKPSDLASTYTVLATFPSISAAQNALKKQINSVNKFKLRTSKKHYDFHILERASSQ

| binding | Substance |
| --- | --- |
| binds | Actin-related protein 2/3 complex subunit 1A (from UniProt Q92747 1-370) |
| binds | R3H domain containing 1 (from UniProt Q15032 1-1099) |
